# Percent effect of library compounds

Source: ChEMBL document CHEMBL3988442, “University of Dundee, Small-Polar-MMV Screening Library” (2021).

Mtb cholesterol medium: 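Phenotypic screen: M. tuberculosis growth, cholesterol and DPPC medium, 4 days; the read-out is not stated. Concentration: 50 µM. Higher reads as more growth inhibition (inferred: compounds with an IC50 in retests scored well above the rest). About 69,000 compounds were tested under these conditions; 0.54% (about 370) showed 50% or more at least once.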
Mtb glucose medium: 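Growth of Mycobacterium tuberculosis over 3 days (7H9 medium with glucose and tyloxapol); the read-out is not stated. Concentration: 50 µM. Higher reads as more growth inhibition (inferred: compounds with an IC50 in retests scored well above the rest). Of about 69,000 compounds tested this way, about 760 (1.1%) reached 50% or more in at least one test.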

The filed quantity is “Percent Effect” (%).
The controls that fix the scale are not given in the record; negative values are as filed.
The compounds are a random part of those screened.
Two or more numbers in one place are separate tests of the same structure; such repeats can differ widely.

| Compound | Mtb cholesterol medium | Mtb glucose medium |
|---|---|---|
| `COc1cc(CN(C)C(=O)NCC(=O)NC(C)C)ccc1SC` | -8.274% | 2.932% |
| `COC(=O)C(NC(=O)C1CCCC1)c1cc(F)ccc1F` (stereo not shown) | -1.928% | 13.35% |
| `CC(NCC1CCN(CCO)CC1)c1ccc(Cl)cc1` (stereo not shown) | 17.01% | 31.54% |
| `Cc1cnc(N2CCOC3(CCCN(C(=O)C(C)C)C3)C2)nc1` (stereo not shown) | 3.252% | 4.941% & 15.15% |
| `Nc1nc2c(c(NCc3nc(-c4ccncc4)n[nH]3)n1)CCCC2` | -19.96% | 39.85% |
| `CCC(C(=O)N1CCN(C(=O)N2CCOCC2)CC1)n1cccn1` (stereo not shown) | 17.81% | -28.16% |
| `COCCNC(=O)NCCCOC1CCCc2ccccc21` (stereo not shown) | 9.951% | 4.165% & -5.05% |
| `Cc1ccccc1CN1CCCN(C(=O)c2ccn(C)c(=O)c2)CC1` | 15.04% | -5.91% |
| `CC(CC(=O)Nc1ncn(CC(=O)N2CCCCCC2)n1)C1CC1` (stereo not shown) | -4.355% | -10.91% & 1.938% |
| `Cc1ccccc1-n1ncc2c(=O)n(CCN3CCCC3)cnc21` | -6.218% | -8.903% |
| `O=C1CN(C(=O)c2cc(Cl)ccc2F)c2ccccc2N1` | 5.856% & -3.447% | -31.5% |
| `O=C(Nc1ccc2c(c1)OCCO2)N1CCCC1c1ccco1` (stereo not shown) | -16.13% | -1.825% |
| `CCn1ncc2c1C(COC)N(C(=O)c1ccc3c(c1)OCO3)CC2.O=C(O)C(F)(F)F` (stereo not shown) | -8.745% | -8.97% & -37.99% |
| `Cc1cc(-c2cnc(N3CCC(O)CC3)nc2C(C)C)on1` | 0.8081% & -3.264% | 11.37% |
| `O=C(O)C(F)(F)F.[H][C@@]12CCN(c3cccnc3)C[C@]1([H])CN(C(=O)c1ccc(C)nc1)C2` | 17.8% | -12.9% |
| `Cc1nc2n(n1)CC(NCc1cc(Cl)c3c(c1)OCCCO3)CC2` (stereo not shown) | -1.156% | 14.71% |
| `CN(C)CC1(O)CCN(C(=O)c2cnc(-c3ccccn3)nc2)C1` (stereo not shown) | -31.72% | -1.778% |
| `CC1CCCCN1c1nc2c(c(=O)[nH]1)CCN(Cc1ccc(O)cc1)C2` (stereo not shown) | -4.327% | -13.13% |
| `O=C(c1ccc[nH]1)N1CCC2(CC1)CC(Oc1cccnc1)CO2` (stereo not shown) | -5.348% | -26.53% |
| `COc1cc(S(=O)(=O)N2C[C@@H](C)[C@@](C)(O)C2)c(C)cc1C` | -17.52% | 5.143% |
| `OC1CCCOC12CCN(CCCOc1ccccc1F)CC2` (stereo not shown) | 7.232% & -5.138% | -5.534% |
| `CCc1ccc(C2COCCN2C(=O)NCc2cccc(C#N)c2)o1` (stereo not shown) | -3.746% | -8.562% |
| `CS(=O)(=O)N[C@H]1CCO[C@]2(CCN(C(=O)c3ccccn3)C2)C1.O=C(O)C(F)(F)F` | 0.8257% & 12.39% | -19.65% |
| `COc1ccc(C[C@H]2CN(c3cc(OC)ncn3)CC[C@H]2OC)cc1.O=C(O)C(F)(F)F` | 8.975% | 28.98% & 24.29% |
| `Cc1c(Cn2ccnc2-c2cc(CN(C)C)cs2)cnn1C` | -23.58% | -24.62% |
| `[H][C@]12CC[C@]([H])(CN(C(=O)Nc3ccccc3C(C)C)C1)N(C)C2=O` | -8.831% | -27.26% & 3.407% |
| `COCCCC1CCCN(C(=O)CCc2cc(O)no2)C1` (stereo not shown) | 10.03% | -6.03% & 9.588% |
| `Cc1cccc(CNC(=O)NCC2CCN(Cc3ncc[nH]3)C2)c1` (stereo not shown) | 12.1% | 27.23% |
| `Cc1nn(C)c2nc(N(CCOc3ccccc3)CC3CCCO3)sc12` (stereo not shown) | -9.366% | -36.16% |
| `CN(C)S(=O)(=O)N1CCC2(CC1)CC(Oc1ccccn1)CO2.O=C(O)C(F)(F)F` (stereo not shown) | -10.9% | -2.626% & 8.676% |
| `O=C(O)C(F)(F)F.O=C(O)C(F)(F)F.c1ccc(OCc2n[nH]c3c2CN(CC2CC2)C3)nc1` | 1.154% | 0.3105% & 11.93% |
| `Cc1cccc(C2CCCN(C(=O)CN3C(=O)CCNC3=O)C2)c1` (stereo not shown) | -7.753% | -3.449% |
| `O=C(CCn1ccc2ccc(Cl)cc21)NCc1ccc(C(=O)O)cc1` | 7.381% | 28.12% |
| `CCN(CC)c1ncccc1CNC(=O)c1cc2nc(C)cc(C)n2n1` | 2.071% | -21.53% |
| `CN(C)c1ncc(-c2cccc(C(N)=O)c2)c(C2CNCCO2)n1.Cl` (stereo not shown) | 4.443% & -0.4023% | -0.503% |
| `Cc1cc(CN2CCC3(CC2)COC(COCC2CC2)C3)no1.O=C(O)C(F)(F)F` (stereo not shown) | -17.33% | -12.79% |
| `[H][C@]12C[C@H](NC(=O)c3ccccn3)[C@@]1([H])CN(S(=O)(=O)c1ccc(C)cc1)C2` | 0.02694% | -28.65% |
| `COC(=O)c1ccoc1CN(C)CC(=O)NC1CCS(=O)(=O)C1` (stereo not shown) | -5.959% | 22.14% |
| `CCC(C)CS(=O)(=O)NCCc1csc(N2CCCC2)n1` (stereo not shown) | 8.66% | 4.245% |
| `Cc1ccc(S(=O)(=O)NC[C@H]2OC[C@@H](NCc3cccnc3)[C@@H]2O)cc1` | -3.634% | 3.15% & -21.23% |
| `Cc1nc(C)n(CC2CCCN2CCc2cccs2)n1` (stereo not shown) | -23.92% | 9.511% |
| `CCNC(=O)N(Cc1cccc(OC)c1)C1CCC(O)CC1` (stereo not shown) | -18.4% | 8.471% |
| `CN(C)c1cc(CNc2cncc(-n3cccn3)n2)ccn1` | -6.135% | 7.154% |
| `[H][C@@]12CN(C(=O)CCOC)C[C@]1([H])C(=O)N(Cc1cccc(C)c1)C2` | 2.067% | -0.3091% |
| `COc1ccc(CCNC(=O)C2CCCOC2)c(Cl)c1` (stereo not shown) | -3.673% & 11.64% | 32.25% |
| `Cc1ccc(CNC(CCO)C2CCCCC2)nc1` (stereo not shown) | 0.5872% | 2.288% & -9.897% |
| `CN1N=C(c2nc(Cc3cccc(Br)c3)no2)CCC1=O` | 20.68% | 31.28% |
| `CC(C)CNC(=O)CC1OCCc2ccsc21` (stereo not shown) | -10.09% | -0.02788% |
| `CCc1nc(C2CCCN(C(=O)CN(C)S(C)(=O)=O)C2)no1` (stereo not shown) | 18.44% | 13.04% |
| `CC1CN(C)c2ccccc2CN1CCn1cncn1` (stereo not shown) | -14% & -4.882% | -25.16% |
| `CS(=O)(=O)N1CCC(Oc2ccc(C(=O)NC3CCCC3)cc2Cl)CC1` | -24.23% | -13.96% |
| `Cc1ccc(C(=O)N2CC[C@]3(C[C@@H](OCc4ccccn4)CO3)C2)nc1.O=C(O)C(F)(F)F.O=C(O)C(F)(F)F` | -5.447% & 6.548% | -13.22% |
| `CSC1(CNC(=O)NC(C)Cc2cccc(F)c2)CCOCC1` (stereo not shown) | 2.679% | 13.63% |
| `Cc1noc([C@@H]2CCCN2C(=O)C2CCN(CC(N)=O)CC2)n1` | 15.4% | 21.66% |
| `NC(=O)c1cnc2n1CCN(C(=O)c1cccc(Cn3cccn3)c1)C2` | 11.86% | 21.59% & -1.278% |
| `O=C(O)C(F)(F)F.O=C(c1ccoc1)N1CCCC2(CCC(=O)N2Cc2cccnc2)C1` (stereo not shown) | 21.85% | 13.47% & -4.679% |
| `CN(CCc1ccccn1)[C@@H]1CCN(c2cccc(C#N)n2)C[C@H]1O` | 11.9% | 37.62% |
| `CC(C(=O)N1CCCCCC1)N1CCN(Cc2nccn2C)CC1` (stereo not shown) | 6.751% | -1.723% |
| `O=C(c1cccs1)N1CCOCC2(C1)CN(c1ccccc1)C(=O)CO2` (stereo not shown) | -28.15% | -6.562% |
| `Cc1n[nH]/c(=N\C(=O)c2c3c(nc4onc(C)c24)CCC3)s1` | 19.31% | -2.958% |
| `O=C(NC1CC1)N1CCc2ccc(=O)n(Cc3ccncc3)c2CC1` | -5.44% | -18.08% & -12.91% |
| `[H][C@@]12CCCC[C@@]1([H])CN(Cc1nc(-c3ccsc3)oc1C)CC2` | -6.539% | -21% |
| `CN(C)CCNc1ccc(-c2nc(COc3ccccc3)no2)cn1` | 22.01% | 29.55% |
| `O=C(c1ccc(-c2ccc(O)nc2)s1)N1CCSCC1` | 9.056% | -6.455% |
| `Cc1ccccc1CS(=O)(=O)CC(=O)NCc1ccccc1F` | -5.221% | 12.01% & 28.81% |
| `COCCOC[C@]1(CNCc2ccc(F)cc2)C[C@@H](O)[C@@H](O)C1.Cl` | -26.73% | -41.13% & -1.3% |
| `CNc1nc(N2CCN(C3CCCCC3)C(CCO)C2)nc2c1CCC2` (stereo not shown) | 1.455% | 17.91% & 2.658% |
| `Cc1cc(C2CCCN2C(=O)CN(C)Cc2ccccc2)no1` (stereo not shown) | 4.585% | 16.74% |
| `Cc1cc(CNC(=O)NCCCC(=O)N2CCc3ccccc32)no1` | -13.55% | 3.699% |
| `CN1CC(C(=O)NC2(c3ccc(Cl)cc3)CCOCC2)CC1=O` (stereo not shown) | -24.71% | 6.053% |
| `Cn1cc(C2CCCN2C(=O)COC2CCCCC2)cn1` (stereo not shown) | 12.55% | 2.345% |
| `COc1ccc(CN2CCn3c(C(=O)N(C)C)cnc3C2)cc1.O=C(O)C(F)(F)F` | -3.169% & -3.76% | -27.08% |
| `Cc1nc(C)n(C2CCCN(C(=O)c3ccnc(N(C)C)c3)C2)n1` (stereo not shown) | -3.74% | 12.45% |
| `COCc1nc(-c2ccc(S(=O)(=O)N3CCCC3)cc2)cs1` | 3.18% | -11.97% |
| `O=C(O)C1(n2ccc(-c3ccco3)n2)CCN(Cc2ccccn2)CC1` | 1.089% | -12.4% |

For reference, 5 entries once more:

{"compound": "Cc1cc(CNC(=O)NCCCC(=O)N2CCc3ccccc32)no1", "Mtb cholesterol medium": -13.55, "Mtb glucose medium": 3.699}
{"compound": "O=C(O)C(F)(F)F.O=C(O)C(F)(F)F.c1ccc(OCc2n[nH]c3c2CN(CC2CC2)C3)nc1", "Mtb cholesterol medium": 1.154, "Mtb glucose medium": "0.3105 & 11.93"}
{"compound": "Cc1nc(C)n(C2CCCN(C(=O)c3ccnc(N(C)C)c3)C2)n1", "stereo": "stereo not shown", "Mtb cholesterol medium": -3.74, "Mtb glucose medium": 12.45}
{"compound": "CCc1nc(C2CCCN(C(=O)CN(C)S(C)(=O)=O)C2)no1", "stereo": "stereo not shown", "Mtb cholesterol medium": 18.44, "Mtb glucose medium": 13.04}
{"compound": "[H][C@]12CC[C@]([H])(CN(C(=O)Nc3ccccc3C(C)C)C1)N(C)C2=O", "Mtb cholesterol medium": -8.831, "Mtb glucose medium": "-27.26 & 3.407"}